# Test results as given in PubChem BioAssay AID540256 (National Center for Advancing Translational Sciences (NCATS), 2011).
# The campaign covered roughly 300,000 compounds. About 3,700 (1.2%) were called active. The inconclusive results got no clear call from the source; some entries with a clear call stand among them for comparison. Calls come from the whole dose curve; tested in HEK293 cells. A potency beside an inconclusive call is a rough fit, not a confirmed value.
# Test: qHTS for Inhibitors of binding or entry into cells for Lassa Virus; note: nearly all actives have a fitted effect of over 50% in size
# Conditions: Lassa virus pseudotype entry inhibition, cell reporter; series mostly up to 37.9 µM
# Potency is the fitted concentration of half-maximal effect.
row,Structure (SMILES),Potency
1,COc1ccc([C@@H]2C(C#N)=C(N)S[C@@H](c3ccccc3)[C@@H]2[N+](=O)[O-])cc1,"inconclusive: 25.9 µM [inhibitor, partial curve]"
2,FC(F)(F)c1ccncc1-c1nnnn1-c1ccc(Cl)cc1,inactive
3,CCc1ccc(NCc2cc3cc4c(cc3n(CC(=O)Nc3ccc(OC)cc3)c2=O)OCO4)cc1,"inconclusive: 35.5 µM [inhibitor, single point]"
4,CC(C)(C)NCC1(CO)SC(N)=NC1=O (configuration not stated),"inconclusive: 18.3 µM [activator, single point]"
5,CCCCC1=NN(C(=O)c2ccncc2)C(O)(C(F)(F)F)C1 (configuration not stated),inactive
6,Cc1ccc2nc(SCn3nnc4ccccc4c3=O)[nH]c2c1,"inconclusive: 35.5 µM [inhibitor, single point]"
7,O=S(=O)(c1cccs1)N1CCN(c2ccccc2)CC1,inactive
8,Cc1cc(C(C)(C)C)cc(C)c1S(=O)(=O)N1CCN(C(=O)c2cc([N+](=O)[O-])c[nH]c2=O)CC1,"inconclusive: 7.08 µM [inhibitor, partial curve, poor fit]"
9,COc1ccc(C(=O)CNc2ccccc2CO)cc1,"inconclusive: 3.98 µM [inhibitor, full curve]"
10,CN(C)/C=C1/C(=O)N(c2ccc([N+](=O)[O-])cc2)N=C1c1ccccc1,"inconclusive: 20.6 µM [activator, single point]"
11,COc1cccc(-n2ccnc2SCC(=O)Nc2cccc3ccccc23)c1,inactive
12,COc1cc(CNCCO)ccc1OCCc1ccccc1,inactive
13,CCOc1ccc(CCNC(=O)COC(=O)/C=C/c2ccc(C)o2)cc1OCC,inactive
14,CC1CCN(CCCNC(=O)CN2C(=O)CSc3ccc(S(=O)(=O)N4CCCCC4)cc32)CC1,"inconclusive: 25.1 µM [activator, single point]"
15,CC1=NN(c2nc(-c3ccc(C)cc3)cs2)C(=O)C1N=Nc1ccc(C(N)=O)cc1 (configuration not stated),active: 4.61 µM
16,Cc1nc(SCC(=O)N2CCOCC2)c2c3c(sc2n1)CCC3,"inconclusive: 6.31 µM [inhibitor, full curve, poor fit]"
17,Cc1ccc(S(=O)(=O)NCc2csc(C)n2)cc1,inactive
18,NS(=O)(=O)c1cccc(NC(=O)COC(=O)/C=C/c2ccco2)c1,"inconclusive: 15.8 µM [activator, partial curve, poor fit]"
19,COc1ccccc1CNC(=O)c1oc2ccc(S(=O)(=O)N3CCOCC3)cc2c1C,inactive
20,Cc1cnc(C(=O)OCc2ccc(COC(=O)c3cnc(C)cn3)cc2)cn1,inactive
21,Cc1nc(-c2cccc(F)c2)sc1CCNC(=O)Cc1ccc(F)cc1,inactive
22,O=C(CN1CCN(c2cccc(C(F)(F)F)c2)CC1)N(C1CCCC1)C1CCS(=O)(=O)C1 (configuration not stated),inactive
23,CC1(C)CC(=O)c2cnc(NC(=O)C3CCCC3)nc2C1,"inconclusive: 29.1 µM [inhibitor, single point]"
24,CC(=O)Nc1ccc(C=C2C(=O)NC(=O)NC2=O)cc1,"inconclusive: 3.98 µM [inhibitor, single point]"

row,Structure (SMILES),Potency
1,N#Cc1c2n(cnc1=O)CCCCC2,inactive
2,Cc1cc(=O)oc2cc(NC(=O)c3ccc(OC(F)F)cc3)ccc12,"inconclusive: 20 µM [activator, partial curve, poor fit]"
3,COc1ccccc1CNC(=O)COC(=O)c1cc(-c2ccco2)nc2ccccc12,"inconclusive: 4.11 µM [activator, single point]"
4,CCOc1ccccc1-n1c(N)c(C(=O)OC)c2nc3ccccc3nc21,inactive
5,Cc1ccc(CNC(=O)COc2ccc(S(=O)(=O)N3CCOCC3)cc2)cc1,inactive
6,C=CCc1ccc(OCCOc2cccc3cccnc23)c(OC)c1,inactive
7,Cc1occc1-c1nc(-c2ccccn2)no1,"inconclusive: 1.12 µM [activator, single point]"
8,CN(C)CCNC(=O)c1cccc2ccc(-c3ccc(-c4ccccc4)cc3)nc12,"inconclusive: 35.5 µM [inhibitor, single point]"
9,c1ccc(COc2ccccc2CNC23CC4CC(CC(C4)C2)C3)cc1,"inconclusive: 35.5 µM [inhibitor, single point]"
10,CC1(C)c2ccccc2C(=O)c2ccccc21,"inconclusive: 3.55 µM [inhibitor, single point]"
11,CCC(CO)Nc1ncnc2onc(-c3ccc(F)cc3)c12 (configuration not stated),"inconclusive: 0.562 µM [inhibitor, partial curve, poor fit]"
12,O=C1CC(c2ccccc2)CC(O)=C1C=NCCN1CCN(Cc2ccccc2)CC1 (configuration not stated),"inconclusive: 28.2 µM [inhibitor, single point]"
13,Cc1sc2ncnc(NCC(O)c3ccc([N+](=O)[O-])cc3)c2c1C (configuration not stated),"inconclusive: 11.2 µM [inhibitor, single point]"
14,O=C(c1ccccc1)c1nn(-c2ccccc2)c(=O)cc1C(F)(F)F,"inconclusive: 20 µM [inhibitor, partial curve, poor fit]"
15,C/C(=N\NC(=O)COc1ccc(C(C)(C)C)cc1)c1ccc(N2CCOCC2)cc1,active: 1.3 µM
16,CCCN(CCC)Cc1c(C(=O)N/N=C/C(C)=C\c2ccco2)nnn1-c1nonc1N,"inconclusive: 22.4 µM [inhibitor, partial curve, poor fit]"
17,COc1ccc(CCNC(=O)c2ccncc2)cc1OC,inactive
18,CSc1ccc(C(=O)C2CCCN(Cc3cc4ccccc4[nH]3)C2)cc1 (configuration not stated),"inconclusive: 12.6 µM [inhibitor, partial curve, poor fit]"
19,O=C(CSc1nnnn1-c1ccc(F)cc1)c1ccc(O)c(O)c1,inactive
20,COc1cc(NS(=O)(=O)c2cc(Br)cc3c2N(C(C)=O)C(C)C3)cc(OC)c1 (configuration not stated),"inconclusive: 14.1 µM [inhibitor, partial curve, poor fit]"
21,N#CC1=C(N)N(c2ccc(Cl)cc2)C2=C(C(=O)CCC2)C1c1cc(CN2CCOCC2)cs1 (configuration not stated),inactive
22,COc1cccc(C(=O)C2CCCN(Cc3cccc(OCCO)c3)C2)c1 (configuration not stated),inactive
23,CCc1cccc(NC(=O)Cn2c(=O)n(CC3CCC(C(=O)NC)CC3)c(=O)c3sccc32)c1 (configuration not stated),"inconclusive: 2.82 µM [activator, partial curve, poor fit]"
24,COc1ccc2c(c1)[nH]c1c(=O)n(Cc3ccccn3)cnc12,"inconclusive: 35.5 µM [activator, single point]"

row,Structure (SMILES),Potency
1,COc1cccc(CNC(=O)CN(c2ccc(C)cc2)S(=O)(=O)N(C)C)c1OC,inactive
2,CSc1nsc(SC)c1NC(=O)OCc1ccccc1,inactive
3,CN(CC(=O)Nc1ccc(F)cc1)C(=O)Cn1cnc2ccc([N+](=O)[O-])cc2c1=O,inactive
4,Cc1ccc(N/C=C(/C#N)c2ccsc2)cc1,inactive
5,Cn1c(=O)c2c(ncn2CC(=O)Nc2cc(S(=O)(=O)N3CCCCC3)ccc2Cl)n(C)c1=O,"inconclusive: 11.2 µM [inhibitor, partial curve, poor fit]"
6,CCOC(=O)C(C(=O)OCC)C(C)(C)/C(C)=N\Nc1ccc([N+](=O)[O-])cc1[N+](=O)[O-],"inconclusive: 8.91 µM [inhibitor, partial curve, poor fit]"
7,S=C(N/N=C/c1ccccc1)N1CCOCC1,"inconclusive: 14.6 µM [activator, single point]"
8,COc1ccc(CN(Cc2ccccn2)S(=O)(=O)c2ccc(-n3cnnn3)c(OC)c2)cc1,"inconclusive: 5.17 µM [inhibitor, partial curve, poor fit]"
9,O=C(O)CSc1nnc2c(n1)[nH]c1ccccc12,inactive
10,CCCNS(=O)(=O)c1ccc(NC(=O)c2ccccn2)cc1,"inconclusive: 14.1 µM [inhibitor, single point]"
11,C=CCNC(=O)c1cc2c(=O)n3cccc(C)c3nc2s1,"inconclusive: 35.5 µM [inhibitor, single point]"
12,CCN1C(=O)c2ccccc2Sc2ccc(C(=O)NCCCN(CC(C)C)CC(C)C)cc21,"inconclusive: 35.5 µM [inhibitor, single point]"
13,Cc1ccc(C)c(N(C(=O)Cn2nnc(-c3cccs3)n2)C(C(=O)NC2CC2)c2ccc(C)o2)c1 (configuration not stated),"inconclusive: 4.11 µM [inhibitor, single point]"
15,Cc1ccccc1CN1C(=O)CN=C(c2ccccc2)c2cc(Cl)ccc21,"inconclusive: 12.6 µM [inhibitor, partial curve, poor fit]"
16,Cc1cc(C)c(NC(=O)Cc2csc(C)n2)c(Cl)c1,"inconclusive: 7.94 µM [activator, partial curve, poor fit]"
17,CC1CC/C(=C\c2ccc3c(c2)OCO3)C(=O)/C1=C/c1ccc2c(c1)OCO2 (configuration not stated),"inconclusive: 29.1 µM [inhibitor, single point]"
18,COc1ccccc1NC(=O)C1CC(C)OC1=O (configuration not stated),inactive
19,COc1cccc2c(=O)c(C(=O)NCc3cccs3)c[nH]c12,"inconclusive: 5.8 µM [activator, single point]"
20,O=C(Nc1ccc(-c2cn3ccccc3n2)cc1)c1cccs1,"inconclusive: 15.8 µM [inhibitor, partial curve, poor fit]"
21,O=C(CSc1nccn1-c1ccc(F)cc1)Nc1ccc2c(c1)OCO2,inactive
22,COc1ccc(N2CCN(c3ccc(NC(=O)NN)cc3)CC2)cc1,inactive
23,CC(C)CC1c2[nH]c3ccccc3c2CCN1CCCn1cccn1 (configuration not stated),active: 11.2 µM
24,O=C(CSc1nnc(-c2ccccn2)o1)Nc1ccccc1F,"inconclusive: 3.98 µM [inhibitor, partial curve]"

# Of the compounds above, these contain a halogen:
row,Structure (SMILES),Potency
2,FC(F)(F)c1ccncc1-c1nnnn1-c1ccc(Cl)cc1,inactive
5,CCCCC1=NN(C(=O)c2ccncc2)C(O)(C(F)(F)F)C1 (configuration not stated),inactive
21,Cc1nc(-c2cccc(F)c2)sc1CCNC(=O)Cc1ccc(F)cc1,inactive
22,O=C(CN1CCN(c2cccc(C(F)(F)F)c2)CC1)N(C1CCCC1)C1CCS(=O)(=O)C1 (configuration not stated),inactive
2,Cc1cc(=O)oc2cc(NC(=O)c3ccc(OC(F)F)cc3)ccc12,"inconclusive: 20 µM [activator, partial curve, poor fit]"
11,CCC(CO)Nc1ncnc2onc(-c3ccc(F)cc3)c12 (configuration not stated),"inconclusive: 0.562 µM [inhibitor, partial curve, poor fit]"
14,O=C(c1ccccc1)c1nn(-c2ccccc2)c(=O)cc1C(F)(F)F,"inconclusive: 20 µM [inhibitor, partial curve, poor fit]"
19,O=C(CSc1nnnn1-c1ccc(F)cc1)c1ccc(O)c(O)c1,inactive
20,COc1cc(NS(=O)(=O)c2cc(Br)cc3c2N(C(C)=O)C(C)C3)cc(OC)c1 (configuration not stated),"inconclusive: 14.1 µM [inhibitor, partial curve, poor fit]"
21,N#CC1=C(N)N(c2ccc(Cl)cc2)C2=C(C(=O)CCC2)C1c1cc(CN2CCOCC2)cs1 (configuration not stated),inactive
3,CN(CC(=O)Nc1ccc(F)cc1)C(=O)Cn1cnc2ccc([N+](=O)[O-])cc2c1=O,inactive
5,Cn1c(=O)c2c(ncn2CC(=O)Nc2cc(S(=O)(=O)N3CCCCC3)ccc2Cl)n(C)c1=O,"inconclusive: 11.2 µM [inhibitor, partial curve, poor fit]"
15,Cc1ccccc1CN1C(=O)CN=C(c2ccccc2)c2cc(Cl)ccc21,"inconclusive: 12.6 µM [inhibitor, partial curve, poor fit]"
16,Cc1cc(C)c(NC(=O)Cc2csc(C)n2)c(Cl)c1,"inconclusive: 7.94 µM [activator, partial curve, poor fit]"
21,O=C(CSc1nccn1-c1ccc(F)cc1)Nc1ccc2c(c1)OCO2,inactive
24,O=C(CSc1nnc(-c2ccccn2)o1)Nc1ccccc1F,"inconclusive: 3.98 µM [inhibitor, partial curve]"
